From US20230276831A1, “Food/Beverage Article” (Kikkoman Corporation, priority 2020, published 2023)
The source gives many values for each of these; only a part stands here.

How the values were obtained:
[1] = system: Lactobacillus rennini (DSM 20253); assay: Antimicrobial action of oxygen-containing heterocyclic compounds in soy sauce (Test Example 6); type: cell-based; design: key: A: The bacterial count decreases to less than 10% of the bacterial count of the control group.; B: The bacterial count decreases to 10% or more and less than 50% of the bacterial count of the control group.; C: The bacterial count decreases to 50% or more and less than 100% of the bacterial count of control group.; D: The bacterial count is the same as the bacterial count of the control group; conditions: salt 4% (w/v), alcohol 5% (v/v), test substance 1 ppm
Protocol: Commercially available whole soybean soy sauce (produced by Kikkoman Corporation) was electrodialyzed and then concentrated under reduced pressure to produce soy sauce at a salt concentration of 0% (w/v) and an alcohol concentration of 0% (v/v). Then, salt and/or alcohol was added to the above-mentioned obtained soy sauce, and the mixture was then heat-treated to produce soy sauce at a salt concentration of 4% (w/v) and an alcohol concentration of 5% (v/v).
The test substance described in Table 20 was added to the above-mentioned produced soy sauce to concentrations of 1 to 100 ppm. […] After the culture, the number of lactic acid bacteria was measured using the GAM agar medium “Nissui”. Soy sauce to which licoricidin was not added was used as a control group, and the antimicrobial activity was evaluated in comparison with the number of lactic acid bacteria in the control group. […]
• A: The bacterial count decreases to less than 10% of the bacterial count of the control group. • B: The bacterial count decreases to 10% or more and less than 50% of the bacterial count of control group. • C: The bacterial count decreases to 50% or more and less than 100% of the bacterial count of the control group. • D: The bacterial count is the same as the bacterial count of the control group. • -: Not evaluated

[2] = system: Lactobacillus rennini DSM 17732; assay: Antimicrobial action of licoricidin in liquid seasoning (1), lactic acid bacteria B; type: cell-based; design: key: A: The bacterial count decreases to less than 10% of the bacterial count of the control group.; B: The bacterial count decreases to 10% or more and less than 50% of the bacterial count of the control group.; C: The bacterial count decreases to 50% or more and less than 100% of the bacterial count of control group.; D: The bacterial count is the same as the bacterial count of the control group
Protocol: Commercially available whole soybean soy sauce (produced by Kikkoman Corporation) was electrodialyzed and then concentrated under reduced pressure to obtain soy sauce at a salt concentration of 0% (w/v) and an alcohol concentration of 0% (v/v). Then, salt and/or alcohol was added to the above-mentioned obtained soy sauce, and the mixture was heat-treated to produce soy sauces at salt concentrations and alcohol concentrations shown in the following Table 5. The pHs of the soy sauces were 4.9 to 5.0. […]
Licoricidin (produced by ChemFaces) was added to each of the liquid seasonings produced in the above-mentioned (1) to concentrations of 1 ppm, 5 ppm, 10 ppm, 25 ppm, and 50 ppm. Lactic acid bacteria described in the following Table 9 were then added to 10^6 to 10^7 cells/mL and cultured at 30° C. for 7 days. After the culture, the number of lactic acid bacteria was measured using the GAM agar medium “Nissui”. Liquid seasoning to which licoricidin was not added was used as a control group, and the antimicrobial activity was evaluated in comparison with the number of lactic acid bacteria in the control group. The evaluation was performed using the criterion shown below.
• A: The bacterial count decreases to less than 10% of the bacterial count of the control group. • B: The bacterial count decreases to 10% or more and less than 50% of the bacterial count of the control group. • C: The bacterial count decreases to 50% or more and less than 100% of the bacterial count of control group. • D: The bacterial count is the same as the bacterial count of the control group.

COc1c(CC=C(C)C)c(O)cc2c1C[C@H](c1ccc(O)c(CC=C(C)C)c1O)CO2 [Licoricidin, 4-[(R)-7-hydroxy-5-methoxy-6-(3-methyl-2-butenyl)chroman-3-yl]-2-(3-methyl-2-butenyl)-1,3-benzenediol]
Antimicrobial activity [1]: D | Antimicrobial activity ([2]; Bonito stock (salt 0.2% (w/v), alcohol 0.15% (v/v), pH 6.1), licoricidin 1 ppm): C (The bacterial count decreases to 50% or more and less than 100% of the bacterial count of control group.) | Antimicrobial activity ([2]; Bonito stock (salt 0.2% (w/v), alcohol 0.15% (v/v), pH 6.1), licoricidin 5 ppm): A (The bacterial count decreases to less than 10% of the bacterial count of the control group.) | Antimicrobial activity ([2]; Bonito stock (salt 0.2% (w/v), alcohol 0.15% (v/v), pH 6.1), licoricidin 10 ppm): A (The bacterial count decreases to less than 10% of the bacterial count of the control group.) | Antimicrobial activity ([2]; Bonito stock (salt 0.2% (w/v), alcohol 0.15% (v/v), pH 6.1), licoricidin 25 ppm): A (The bacterial count decreases to less than 10% of the bacterial count of the control group.) | Antimicrobial activity ([2]; Bonito stock (salt 0.2% (w/v), alcohol 0.15% (v/v), pH 6.1), licoricidin 50 ppm): A (The bacterial count decreases to less than 10% of the bacterial count of the control group.) | Antimicrobial activity ([2]; Japanese seasoned soup stock (salt 3% (w/v), alcohol 0.4% (v/v), pH 5.5), licoricidin 1 ppm): C (The bacterial count decreases to 50% or more and less than 100% of the bacterial count of control group.) | Antimicrobial activity ([2]; Japanese seasoned soup stock (salt 3% (w/v), alcohol 0.4% (v/v), pH 5.5), licoricidin 5 ppm): A (The bacterial count decreases to less than 10% of the bacterial count of the control group.) | Antimicrobial activity ([2]; Japanese seasoned soup stock (salt 3% (w/v), alcohol 0.4% (v/v), pH 5.5), licoricidin 10 ppm): A (The bacterial count decreases to less than 10% of the bacterial count of the control group.) | Antimicrobial activity ([2]; Japanese seasoned soup stock (salt 3% (w/v), alcohol 0.4% (v/v), pH 5.5), licoricidin 25 ppm): A (The bacterial count decreases to less than 10% of the bacterial count of the control group.) | Antimicrobial activity ([2]; Japanese seasoned soup stock (salt 3% (w/v), alcohol 0.4% (v/v), pH 5.5), licoricidin 50 ppm): A (The bacterial count decreases to less than 10% of the bacterial count of the control group.) | Antimicrobial activity ([2]; Sauce (salt 5.3% (w/v), alcohol 0.8% (v/v), pH 5.0), licoricidin 1 ppm): D | Antimicrobial activity ([2]; Sauce (salt 5.3% (w/v), alcohol 0.8% (v/v), pH 5.0), licoricidin 5 ppm): A (The bacterial count decreases to less than 10% of the bacterial count of the control group.) | Antimicrobial activity ([2]; Sauce (salt 5.3% (w/v), alcohol 0.8% (v/v), pH 5.0), licoricidin 10 ppm): A (The bacterial count decreases to less than 10% of the bacterial count of the control group.) | Antimicrobial activity ([2]; Sauce (salt 5.3% (w/v), alcohol 0.8% (v/v), pH 5.0), licoricidin 25 ppm): A (The bacterial count decreases to less than 10% of the bacterial count of the control group.) | Antimicrobial activity ([2]; Sauce (salt 5.3% (w/v), alcohol 0.8% (v/v), pH 5.0), licoricidin 50 ppm): A (The bacterial count decreases to less than 10% of the bacterial count of the control group.) | Antimicrobial activity ([2]; Soy sauce, salt 0% (w/v), alcohol 0% (v/v), licoricidin 1 ppm): B (The bacterial count decreases to 10% or more and less than 50% of the bacterial count of the control group.) | Antimicrobial activity ([2]; Soy sauce, salt 0% (w/v), alcohol 0% (v/v), licoricidin 5 ppm): B (The bacterial count decreases to 10% or more and less than 50% of the bacterial count of the control group.) | Antimicrobial activity ([2]; Soy sauce, salt 0% (w/v), alcohol 0% (v/v), licoricidin 10 ppm): B (The bacterial count decreases to 10% or more and less than 50% of the bacterial count of the control group.) | Antimicrobial activity ([2]; Soy sauce, salt 0% (w/v), alcohol 0% (v/v), licoricidin 25 ppm): A (The bacterial count decreases to less than 10% of the bacterial count of the control group.) | Antimicrobial activity ([2]; Soy sauce, salt 0% (w/v), alcohol 0% (v/v), licoricidin 50 ppm): A (The bacterial count decreases to less than 10% of the bacterial count of the control group.) | Antimicrobial activity ([2]; Soy sauce, salt 4% (w/v), alcohol 0% (v/v), licoricidin 1 ppm): B (The bacterial count decreases to 10% or more and less than 50% of the bacterial count of the control group.) | Antimicrobial activity ([2]; Soy sauce, salt 4% (w/v), alcohol 0% (v/v), licoricidin 5 ppm): A (The bacterial count decreases to less than 10% of the bacterial count of the control group.) | Antimicrobial activity ([2]; Soy sauce, salt 4% (w/v), alcohol 0% (v/v), licoricidin 10 ppm): A (The bacterial count decreases to less than 10% of the bacterial count of the control group.) | Antimicrobial activity ([2]; Soy sauce, salt 4% (w/v), alcohol 0% (v/v), licoricidin 25 ppm): A (The bacterial count decreases to less than 10% of the bacterial count of the control group.) | Antimicrobial activity ([2]; Soy sauce, salt 4% (w/v), alcohol 0% (v/v), licoricidin 50 ppm): A (The bacterial count decreases to less than 10% of the bacterial count of the control group.) | Antimicrobial activity ([2]; Soy sauce, salt 8% (w/v), alcohol 0% (v/v), licoricidin 1 ppm): C (The bacterial count decreases to 50% or more and less than 100% of the bacterial count of control group.) | Antimicrobial activity ([2]; Soy sauce, salt 8% (w/v), alcohol 0% (v/v), licoricidin 5 ppm): A (The bacterial count decreases to less than 10% of the bacterial count of the control group.) | Antimicrobial activity ([2]; Soy sauce, salt 8% (w/v), alcohol 0% (v/v), licoricidin 10 ppm): A (The bacterial count decreases to less than 10% of the bacterial count of the control group.) | Antimicrobial activity ([2]; Soy sauce, salt 8% (w/v), alcohol 0% (v/v), licoricidin 25 ppm): A (The bacterial count decreases to less than 10% of the bacterial count of the control group.) | Antimicrobial activity ([2]; Soy sauce, salt 8% (w/v), alcohol 0% (v/v), licoricidin 50 ppm): A (The bacterial count decreases to less than 10% of the bacterial count of the control group.) | Antimicrobial activity ([2]; Soy sauce, salt 12% (w/v), alcohol 0% (v/v), licoricidin 1 ppm): A (The bacterial count decreases to less than 10% of the bacterial count of the control group.) | Antimicrobial activity ([2]; Soy sauce, salt 12% (w/v), alcohol 0% (v/v), licoricidin 5 ppm): A (The bacterial count decreases to less than 10% of the bacterial count of the control group.) | Antimicrobial activity ([2]; Soy sauce, salt 12% (w/v), alcohol 0% (v/v), licoricidin 10 ppm): A (The bacterial count decreases to less than 10% of the bacterial count of the control group.) | Antimicrobial activity ([2]; Soy sauce, salt 12% (w/v), alcohol 0% (v/v), licoricidin 25 ppm): A (The bacterial count decreases to less than 10% of the bacterial count of the control group.) | Antimicrobial activity ([2]; Soy sauce, salt 12% (w/v), alcohol 0% (v/v), licoricidin 50 ppm): A (The bacterial count decreases to less than 10% of the bacterial count of the control group.)
